# No constants are given. Whether binding was seen depends on the method and setting. Some binding calls cover weakened binding; strength is not graded here. For some assays here: Sequences can lack the tags named with a protein.
# The chains behind the UniProt entries cited, without tags or fusion partners. Where a name states a change or a piece, a line headed by the entry shows the natural chain unless it says otherwise.
# UniProt P10415: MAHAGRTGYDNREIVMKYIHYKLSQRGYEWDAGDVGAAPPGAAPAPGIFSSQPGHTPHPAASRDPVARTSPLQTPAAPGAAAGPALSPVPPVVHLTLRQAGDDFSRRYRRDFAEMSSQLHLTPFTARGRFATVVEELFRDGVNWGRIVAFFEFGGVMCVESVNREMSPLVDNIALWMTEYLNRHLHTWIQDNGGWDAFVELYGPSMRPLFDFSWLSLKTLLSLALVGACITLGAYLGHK
# UniProt Q07817: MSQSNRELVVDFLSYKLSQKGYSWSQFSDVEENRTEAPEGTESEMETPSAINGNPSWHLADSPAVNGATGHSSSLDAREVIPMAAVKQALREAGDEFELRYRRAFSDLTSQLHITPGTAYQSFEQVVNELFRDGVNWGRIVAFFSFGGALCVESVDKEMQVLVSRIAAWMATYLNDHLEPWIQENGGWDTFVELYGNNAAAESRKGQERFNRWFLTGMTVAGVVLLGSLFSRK
# T1: human Bfl-1 a.a. 1-153 (C4S) with C-terminal avi-6his tag (human)
# T1 sequence: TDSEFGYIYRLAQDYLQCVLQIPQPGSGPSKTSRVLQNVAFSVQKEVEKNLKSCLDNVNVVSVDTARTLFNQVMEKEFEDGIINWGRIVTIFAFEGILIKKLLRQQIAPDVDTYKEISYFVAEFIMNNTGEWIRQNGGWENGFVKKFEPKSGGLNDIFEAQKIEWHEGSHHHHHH
# T2: human Bcl-B a.a. 11-175 with C-terminal avi-6his tag (human)
# T2 sequence: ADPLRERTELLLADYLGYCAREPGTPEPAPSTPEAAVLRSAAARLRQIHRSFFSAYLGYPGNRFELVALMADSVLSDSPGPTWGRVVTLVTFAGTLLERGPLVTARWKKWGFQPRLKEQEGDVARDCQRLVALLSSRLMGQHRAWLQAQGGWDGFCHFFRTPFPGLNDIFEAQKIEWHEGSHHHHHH
# T3: human Bcl-w a.a. 1-182 with C-terminal avi-6his tag (human) (UniProt Q92843)
# T3 sequence: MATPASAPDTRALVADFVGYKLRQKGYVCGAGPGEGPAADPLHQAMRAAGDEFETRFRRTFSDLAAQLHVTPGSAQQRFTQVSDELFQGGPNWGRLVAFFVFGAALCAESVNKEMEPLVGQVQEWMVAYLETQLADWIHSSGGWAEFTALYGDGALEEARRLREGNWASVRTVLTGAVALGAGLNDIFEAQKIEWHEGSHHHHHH
# B1: M-CDP02 (designed binder)
# chain: ADPKKVLDKAKDQAENRVRELKQELEELYKEARKLDLTQEERRKLEESYIAAMLRAIGDIFNAIMQAKNEADKLKKAGLVNSQQLDELRRRLEELRKEASLKAEDYGREFQEKLEY
# B2: 2-CDP06 (designed binder)
# chain: ADPKKVLDKAKDEAENRVRELKQKLEELYKEARKLDLTQEMRQELVDKARAASLQASGDIFYAILRALAEAEKLKKAGLVNSQQLDELKRRLEELAEEARRKAEKLGDEFRLKLEY
# B3: X-CDP07 (designed binder)
# chain: ADPKKVLDKAKDRAENVVRKLKKELEELYKEARKLDLTQEMRDRIRLAAIAARIAAFGDIFHAIMEALEEARKLKKAGLVNSQQLDELKRRLEELDEEAAQRAEKLGKEFELKLEY
# B4: F-CDP01 (designed binder)
# chain: ADPKKVLDKAKDQAENRVRELKQKLEELYKEARKLDLTQEMRKKLQYAAIGAMLAAIGDILNAIMQAKQEADKLKKAGLVNSQQLDELKRRLEELKEEALRKAHDYGSEFYLKLEY
# B5: 10-CDP01 (designed binder)
# chain: ADPKKVLDKAKDQAENRVRELKQELERLYKEARKLDLTQEMRRKLEWRYIAAMLKAIGDILNAIAQAENEADKLKKAGLVNSQQLDELRRRLEELAKEAARKAHDYGREFQLKLEY
# B6: W-CDP03 (designed binder)
# chain: DPKKVFDEAKDRAENNVRRLKQKLEELYKEARKKDLTQEEREKLKEKYKTAMAAAALAAIGDAFNALLKARKLHKNGQVNEQQLEELARRLQELAKEAFQKAKDYANEFEYKLEY
# Tests used:
# [1] = biological target: T1, human Bfl-1 a.a. 1-153 (C4S) with C-terminal avi-6his tag (human); assay: BLI at a single analyte concentration (50 nM, 600 s association, then buffer); biotinylated BCL2 protein on a streptavidin sensor
# [2] = biological target: T2, human Bcl-B a.a. 11-175 with C-terminal avi-6his tag (human); assay: as above
# [3] = biological target: human Bcl-2 a.a. 1-207 with C-terminal avi-6his tag (human) (UniProt P10415); assay: BLI
# [4] = biological target: human Bcl-2 a.a. 1-207 with C-terminal avi-6his tag (human) (UniProt P10415); assay: initial BLI screening (column 'Binds target?')
# [5] = biological target: human Bcl-XL a.a. 1-205 with C-terminal avi-6his tag (human) (UniProt Q07817); assay: initial BLI screening (column 'Binds target?')
# [6] = biological target: T1, human Bfl-1 a.a. 1-153 (C4S) with C-terminal avi-6his tag (human); assay: initial BLI screening (column 'Binds target?')
# [7] = biological target: T2, human Bcl-B a.a. 11-175 with C-terminal avi-6his tag (human); assay: initial BLI screening (column 'Binds target?')
# [8] = biological target: T3, human Bcl-w a.a. 1-182 with C-terminal avi-6his tag (human); assay: initial BLI screening (column 'Binds target?')
binder,measurement,setting,value
B1,binding,[1],binds
same,binding,[2],binds
B2,binding,[3],binds
same,binding,[4],binds
B3,binding,[5],binds
B4,binding,[6],binds
B5,binding,[7],binds
B6,binding,[8],binds
